Measured values published in patent US20110152183A1, “DERIVATISED HYBRID PEPTIDES OF AMYLIN AND SALMON CALCITONIN” (Novo Nordisk A/S, priority 2008, published 2011).
At least one structure is not confirmed: it was looked up by name or label, or the drawing left a doubt. Peptide text beside a SMILES is read from it.

Test system: ad libitum fed rat model
Assay: Pharmacological assay (I), efficacy testing on appetite (food intake) in ad libitum fed rat model
Type: in vivo

Structure (SMILES): CC(C)C[C@H](NC(=O)[C@H](C)NC(=O)[C@@H]1CSSC[C@H](NC(=O)[C@H](CCCCN)NC(=O)CC[C@H](NC(=O)CCCCCCCCCCCCCCCCCCC(=O)O)C(=O)O)C(=O)N[C@@H](CC(N)=O)C(=O)N[C@@H]([C@@H](C)O)C(=O)N[C@@H](C)C(=O)N[C@@H]([C@@H](C)O)C(=O)N1)C(=O)NCC(=O)N[C@@H](CCCNC(=N)N)C(=O)N[C@@H](CC(C)C)C(=O)N[C@@H](CO)C(=O)N[C@@H](CCC(N)=O)C(=O)N[C@@H](CCC(=O)O)C(=O)N[C@@H](CC(C)C)C(=O)N[C@@H](Cc1c[nH]cn1)C(=O)N[C@@H](CCCNC(=N)N)C(=O)N[C@@H](CC(C)C)C(=O)N[C@@H](CCC(N)=O)C(=O)N[C@H](C(=O)N[C@@H](Cc1ccc(O)cc1)C(=O)N1CCC[C@H]1C(=O)N[C@@H](CCCNC(=N)N)C(=O)N[C@H](C(=O)N[C@@H](CC(N)=O)C(=O)N[C@H](C(=O)NCC(=O)N[C@@H](CO)C(=O)N[C@@H](CC(N)=O)C(=O)N[C@H](C(=O)N[C@@H](Cc1ccc(O)cc1)C(N)=O)[C@@H](C)O)[C@@H](C)O)[C@@H](C)O)[C@@H](C)O [Example 6, N-alpha1-(4—Carboxy-4-(19-carboxy-nonadecanoylamino)butyryl)-amylin (1-8)-[Arg11,Arg18]sCT (9-27)-amylin (33-37)] (HELM PEPTIDE1{[O=C(O)CCCCCCCCCCCCCCCCCCC(=O)[*:2]].[gGlu].K.C.N.T.A.T.C.A.L.G.R.L.S.Q.E.L.H.R.L.Q.T.Y.P.R.T.N.T.G.S.N.T.Y.[am]}$PEPTIDE1,PEPTIDE1,4:R3-9:R3$$$V2.0)
- Reduction in food intake 0-24 h (Sprague Dawley rats, 0-24 h after dosing, compound dosis 30 mmol/kg, n=5-7, mean): 91%
- Reduction in food intake 24-48 h (Sprague Dawley rats, 24-48 h after dosing, compound dosis 30 mmol/kg, n=5-7, mean): 100%
- Reduction of food intake compared with non-derivatised hybrid peptide (example 1) (rats, 0-24 h and 24-48 h, 30 mmol/kg): reduces food intake more effectively than the non-derivatised hybrid peptide
